Source: patent US5516642 (dated 1996)

Test: general procedure: Fmoc solid-phase peptide synthesis; para-alkoxybenzyl ester linkage
Conditions: for final HPLC purity: 215 nm

Substance	step yield (purification step)	final HPLC purity (whole synthesis)	crude yield (whole synthesis, of theory)	crude mass (whole synthesis, scale 0.102 mmol)	final HPLC purity (late stage modification step)	step yield (late stage modification step, from Example 1)
Glycyl-L-asparaginyl-L-α-glutamyl-Lglutaminyl-L-seryl-L-phenylalanyl- L-arginyl-L-valyl-L-α-aspartyl-L-leucyl-L-arginyl-L-thereonyl-L-leucyl-L-leucyl-L-arginyl-L-tyrosyl-L-alanine.	43%	greater than 98%	greater than 100% of theory	385 mg	–	–
Glycyl-L-asparaginyl-L-α-glutamyl-L-glutaminyl-L-seryl-L-phenylalanyl-L-arginyl-L-valyl-L-α-aspartyl-L-leucyl-L-arginyl-L-threonyl-L-leucyl-L-leucyl-arginyl-4-hydroxy-3,5-diiodo-L-phenylalanyl-L-alanine.	–	–	–	–	greater than 98%	53%, from Example 1%
